Assay results taken from article PMC5084153, “Structural studies on MRG701 chromodomain reveal a novel dimerization interface of MRG proteins in green plants” (Protein & Cell, 2016).
Changes are numbered by the printed parent chain. In names and notes the source's numbering stands. No constants are given. Whether binding was seen depends on the method and setting. Some entries that bind do so weakly or less than the wild type. Blank lines part the entries; values can stand above or below the molecule they belong to. Primed or numbered codes have the meaning given here. No end group written: not given here. Me3″ = trimethyl (trimethyl-lysine)

Assays:
[1] = biological target: T1, MRG1 chromodomain (MRG1^CD, residues 28-110) (Arabidopsis thaliana) (UniProt Q94C32); assay: ITC; MicroCal iTC200, 20°C, 20 mmol/L Tris pH 8.0, 100 mmol/L NaCl; protein 0.1-0.2 mmol/L in the cell, peptide 1-2 mmol/L in the syringe; one-site model; both purified
T1 sequence: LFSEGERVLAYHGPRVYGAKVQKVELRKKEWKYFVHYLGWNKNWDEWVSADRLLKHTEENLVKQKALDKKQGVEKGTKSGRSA

[2] = biological target: T2, MRG1 chromodomain mutant W58A (MRG1^CDW58A) (Arabidopsis thaliana) (UniProt Q94C32); assay: as above
T2 sequence: T1 sequence with W31A

[3] = biological target: T3, MRG2 chromodomain mutant E75A (MRG2^CDE75A) (Arabidopsis) (UniProt Q4V3E2); assay: as above
T3 sequence: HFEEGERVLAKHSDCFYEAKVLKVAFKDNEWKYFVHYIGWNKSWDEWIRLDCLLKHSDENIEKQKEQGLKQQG

[4] = biological target: T4, MRG2 chromodomain (MRG2^CD) (Arabidopsis, UniProt Q4V3E2 51-123); assay: as above
T4 chain: T3 sequence with A25E

[5] = biological target: T3, MRG2 chromodomain mutant E75A (MRG2^CDE75A) (Arabidopsis); assay: SEC-MALS; Wyatt 015S5 (150 Å) column, 0.5 mL/min, 10 mmol/L Tris 8.0, 100 mmol/L NaCl; self-association of the chromodomain; both purified
[6] = biological target: T2, MRG1 chromodomain mutant W58A (MRG1^CDW58A) (Arabidopsis thaliana); assay: as above

- binding [1]: binds
- binding [2]: binds
- binding [3]: binds
- binding [4]: binds
Molecule: histone H3K36me3 peptide (residues 31-41) (from UniProt P68431 32-42)

- binding [5]: no binding
B1: MRG2 chromodomain mutant E75A (MRG2^CDE75A) (domain or fragment, UniProt Q4V3E2 51-123)
chain: T3 sequence

B2: histone H3K4me3 peptide (residues 1-9) (peptide, UniProt P68431 2-10, looked up)
peptide: ARTK(Me3″)QTARK
notes: histone H3, residues 1-9, trimethylated at lysine 4
- binding [3]: binds
- binding [4]: binds

- binding [6]: no binding
B3: MRG1 chromodomain mutant W58A (MRG1^CDW58A) (domain or fragment, UniProt Q94C32 28-110)
chain: T1 sequence with W31A
